Results are given in words; binding and its absence hold for the method and conditions named. In cells and extracts the contact can be indirect. Some entries that bind do so weakly or less than the wild type.
target: Myc-tagged CRMP1B-wildtype (human) (UniProt Q14194); assay: co-IP; HEK293T cells coexpressing Myc-tagged CRMP1B-wildtype and a V5-tagged CRMP1B; lysed in IP150 buffer (20 mM Tris-HCl pH 7.4, 150 mM NaCl, 5 mM EDTA, 1% Triton X-100); anti-c-Myc (9E10) agarose overnight at 4°C; anti-V5 and anti-Myc immunoblots

Chains of the proteins cited; added tags and fusions are not shown. Lines headed by an entry give the natural chain unless they say otherwise; changes in a name come on top.
UniProt Q14194: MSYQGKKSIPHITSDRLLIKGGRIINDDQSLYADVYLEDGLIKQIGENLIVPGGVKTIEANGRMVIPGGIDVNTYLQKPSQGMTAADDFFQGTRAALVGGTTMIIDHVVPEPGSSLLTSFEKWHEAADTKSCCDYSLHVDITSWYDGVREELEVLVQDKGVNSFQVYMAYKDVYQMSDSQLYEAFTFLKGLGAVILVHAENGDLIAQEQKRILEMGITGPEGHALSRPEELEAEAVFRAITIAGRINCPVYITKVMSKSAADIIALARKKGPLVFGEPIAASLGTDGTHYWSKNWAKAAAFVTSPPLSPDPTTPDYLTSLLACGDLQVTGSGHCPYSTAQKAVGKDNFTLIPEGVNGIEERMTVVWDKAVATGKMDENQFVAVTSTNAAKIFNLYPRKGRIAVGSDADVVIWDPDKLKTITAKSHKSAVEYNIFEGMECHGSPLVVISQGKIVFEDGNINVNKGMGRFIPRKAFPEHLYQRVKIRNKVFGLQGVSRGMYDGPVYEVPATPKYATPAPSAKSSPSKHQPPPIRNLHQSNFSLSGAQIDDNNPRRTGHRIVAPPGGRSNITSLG

binding, binds:
V5-tagged CRMP1B-P475L (from UniProt Q14194-1 1-572)
V5-tagged CRMP1B-T313M (from UniProt Q14194-1 1-572)
V5-tagged CRMP1B-wildtype (from UniProt Q14194-1 1-572)

Reference: PMC9803352
